Consider 1 molecule from US20170105979A1, “USE OF A TORASEMIDE-BASED VETERINARY COMPOSITION FOR LOW-DOSE ADMINISTERING” (VIRBAC, priority 2014, published 2017).

Data set [1] in a line: plasma urea concentration (innocuousness). Type of data set: in vivo, female Beagle dogs. The following applies: furosemide (5 mg/kg/day), D18 and D28; FIG. 7.
A short description of data set [2]: plasma aldosterone concentration (innocuousness). The following applies: furosemide (5 mg/kg/day), D18 and D28; FIG. 8. Type of data set: in vivo, female Beagle dogs.
The conditions of data set [3]: prolonged treatments of 14 days; torasemide 0.4 mg/kg/day; cited from earlier work.

For `NS(=O)(=O)c1cc(C(=O)O)c(NCc2ccco2)cc1Cl` [furosemide], in data set [1], the plasma urea concentration result was “increase”. The plasma aldosterone concentration result in data set [2] was “increase”. The plasma creatinine concentrations entry in data set [3] was “increase in plasma creatinine concentrations”.
